Test results as given in paper doi:10.1101/2020.06.29.177279.
No constants are given. Whether binding was seen depends on the method and setting. For some assays here: In cells and extracts the contact can be indirect. Some results given as binding are weak or reduced against the parent protein; the word gives no strength. For some assays here: Where a sequence is shown, tags or fusion partners need not be part of it.

T1: HA-tagged RPC5 Full Length (amino acids 1-708) (human) (UniProt Q9NVU0)
T1 sequence: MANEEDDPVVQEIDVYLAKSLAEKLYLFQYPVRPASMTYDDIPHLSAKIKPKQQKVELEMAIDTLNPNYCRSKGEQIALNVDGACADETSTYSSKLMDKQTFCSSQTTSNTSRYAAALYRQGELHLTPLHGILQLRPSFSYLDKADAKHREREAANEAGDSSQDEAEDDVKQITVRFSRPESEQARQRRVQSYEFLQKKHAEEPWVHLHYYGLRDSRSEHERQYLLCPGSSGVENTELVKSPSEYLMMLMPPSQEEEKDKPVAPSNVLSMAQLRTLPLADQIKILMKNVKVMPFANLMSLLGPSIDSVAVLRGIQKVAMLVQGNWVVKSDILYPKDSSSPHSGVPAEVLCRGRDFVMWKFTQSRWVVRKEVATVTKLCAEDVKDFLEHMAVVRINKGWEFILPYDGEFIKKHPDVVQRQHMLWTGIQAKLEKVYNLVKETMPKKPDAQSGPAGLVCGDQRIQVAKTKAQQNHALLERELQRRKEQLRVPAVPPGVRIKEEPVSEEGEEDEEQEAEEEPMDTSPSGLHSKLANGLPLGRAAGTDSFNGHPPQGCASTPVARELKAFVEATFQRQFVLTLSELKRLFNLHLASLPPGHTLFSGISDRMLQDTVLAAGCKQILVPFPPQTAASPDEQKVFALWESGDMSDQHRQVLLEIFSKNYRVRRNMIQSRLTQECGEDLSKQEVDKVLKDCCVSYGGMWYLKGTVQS

T2: HA-tagged RPC5ΔC (amino acids 1-253) (human) (UniProt Q9NVU0)
T2 sequence: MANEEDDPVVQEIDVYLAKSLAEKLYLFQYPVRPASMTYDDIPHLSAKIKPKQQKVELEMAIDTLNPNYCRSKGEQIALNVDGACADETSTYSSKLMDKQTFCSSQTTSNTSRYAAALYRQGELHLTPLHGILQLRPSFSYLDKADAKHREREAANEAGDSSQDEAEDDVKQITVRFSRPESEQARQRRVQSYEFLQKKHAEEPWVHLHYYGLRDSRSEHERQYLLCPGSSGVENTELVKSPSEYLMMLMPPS


What was measured:
[1] = molecular target: T1, HA-tagged RPC5 Full Length (amino acids 1-708) (human); assay: co-IP
[2] = molecular target: T2, HA-tagged RPC5ΔC (amino acids 1-253) (human); assay: co-IP
Rpc5 (556-708) (human) = Rpc5 (556-708) (human) (UniProt Q9NVU0); assay: SAXS
[3] = molecular target: SeMet-Rpc5 (556-708) (human) (UniProt Q9NVU0); assay: crystal structure

| binding [1] | binding [2] | binding (Rpc5 (556-708) (human)) | binding [3] | Binder |
| --- | --- | --- | --- | --- |
| binds | binds | – | – | RPC4 (endogenous in HEK293T) (protein, UniProt P05423 1-398) MSEGNAAGEPSTPGGPRPLLTGARGLIGRRPAPPLTPGRLPSIRSRDLTLGGVKKKTFTPNIISRKIKEEPKEEVTVKKEKRERDRDRQREGHGRGRGRPEVIQSHSIFEQGPAEMMKKKGNWDKTVDVSDMGPSHIINIKKEKRETDEETKQILRMLEKDDFLDDPGLRNDTRNMPVQLPLAHSGWLFKEENDEPDVKPWLAGPKEEDMEVDIPAVKVKEEPRDEEEEAKMKAPPKAARKTPGLPKDVSVAELLRELSLTKEEELLFLQLPDTLPGQPPTQDIKPIKTEVQGEDGQVVLIKQEKDREAKLAENACTLADLTEGQVGKLLIRKSGRVQLLLGKVTLDVTMGTACSFLQELVSVGLGDSRTGEMTVLGHVKHKLVCSPDFESLLDHKHR |
| binds | binds | – | – | RPC1 (endogenous in HEK293T) (protein, UniProt O14802 1-1390) MVKEQFRETDVAKKISHICFGMKSPEEMRQQAHIQVVSKNLYSQDNQHAPLLYGVLDHRMGTSEKDRPCETCGKNLADCLGHYGYIDLELPCFHVGYFRAVIGILQMICKTCCHIMLSQEEKKQFLDYLKRPGLTYLQKRGLKKKISDKCRKKNICHHCGAFNGTVKKCGLLKIIHEKYKTNKKVVDPIVSNFLQSFETAIEHNKEVEPLLGRAQENLNPLVVLNLFKRIPAEDVPLLLMNPEAGKPSDLILTRLLVPPLCIRPSVVSDLKSGTNEDDLTMKLTEIIFLNDVIKKHRISGAKTQMIMEDWDFLQLQCALYINSELSGIPLNMAPKKWTRGFVQRLKGKQGRFRGNLSGKRVDFSGRTVISPDPNLRIDEVAVPVHVAKILTFPEKVNKANINFLRKLVQNGPEVHPGANFIQQRHTQMKRFLKYGNREKMAQELKYGDIVERHLIDGDVVLFNRQPSLHKLSIMAHLARVKPHRTFRFNECVCTPYNADFDGDEMNLHLPQTEEAKAEALVLMGTKANLVTPRNGEPLIAAIQDFLTGAYLLTLKDTFFDRAKACQIIASILVGKDEKIKVRLPPPTILKPVTLWTGKQIFSVILRPSDDNPVRANLRTKGKQYCGKGEDLCANDSYVTIQNSELMSGSMDKGTLGSGSKNNIFYILLRDWGQNEAADAMSRLARLAPVYLSNRGFSIGIGDVTPGQGLLKAKYELLNAGYKKCDEYIEALNTGKLQQQPGCTAEETLEALILKELSVIRDHAGSACLRELDKSNSPLTMALCGSKGSFINISQMIACVGQQAISGSRVPDGFENRSLPHFEKHSKLPAAKGFVANSFYSGLTPTEFFFHTMAGREGLVDTAVKTAETGYMQRRLVKSLEDLCSQYDLTVRSSTGDIIQFIYGGDGLDPAAMEGKDEPLEFKRVLDNIKAVFPCPSEPALSKNELILTTESIMKKSEFLCCQDSFLQEIKKFIKGVSEKIKKTRDKYGINDNGTTEPRVLYQLDRITPTQVEKFLETCRDKYMRAQMEPGSAVGALCAQSIGEPGTQMTLKTFHFAGVASMNITLGVPRIKEIINASKAISTPIITAQLDKDDDADYARLVKGRIEKTLLGEISEYIEEVFLPDDCFILVKLSLERIRLLRLEVNAETVRYSICTSKLRVKPGDVAVHGEAVVCVTPRENSKSSMYYVLQFLKEDLPKVVVQGIPEVSRAVIHIDEQSGKEKYKLLVEGDNLRAVMATHGVKGTRTTSNNTYEVEKTLGIEAARTTIINEIQYTMVNHGMSIDRRHVMLLSDLMTYKGEVLGITRFGLAKMKESVLMLASFEKTADHLFDAAYFGQKDSVCGVSECIIMGIPMNIGTGLFKLLHKADRDPNPPKRPLIFDTNEFHIPLVT |
| – | – | no binding (tested: 3691 μM) | – | Rpc5 (556-708) (domain or fragment, UniProt Q9NVU0 556-708) TPVARELKAFVEATFQRQFVLTLSELKRLFNLHLASLPPGHTLFSGISDRMLQDTVLAAGCKQILVPFPPQTAASPDEQKVFALWESGDMSDQHRQVLLEIFSKNYRVRRNMIQSRLTQECGEDLSKQEVDKVLKDCCVSYGGMWYLKGTVQS |
| – | – | – | no binding | SeMet-Rpc5 (556-708) (domain or fragment, UniProt Q9NVU0 556-708, selenomethionine (SeMet) in place of methionine) TPVARELKAFVEATFQRQFVLTLSELKRLFNLHLASLPPGHTLFSGISDRMLQDTVLAAGCKQILVPFPPQTAASPDEQKVFALWESGDMSDQHRQVLLEIFSKNYRVRRNMIQSRLTQECGEDLSKQEVDKVLKDCCVSYGGMWYLKGTVQS |
| binds | binds | – | – | RPC2 (endogenous in HEK293T) (protein, UniProt Q9NW08 1-1133) MDVLAEEFGNLTPEQLAAPIPTVEEKWRLLPAFLKVKGLVKQHIDSFNYFINVEIKKIMKANEKVTSDADPMWYLKYLNIYVGLPDVEESFNVTRPVSPHECRLRDMTYSAPITVDIEYTRGSQRIIRNALPIGRMPIMLRSSNCVLTGKTPAEFAKLNECPLDPGGYFIVKGVEKVILIQEQLSKNRIIVEADRKGAVGASVTSSTHEKKSRTNMAVKQGRFYLRHNTLSEDIPIVIIFKAMGVESDQEIVQMIGTEEHVMAAFGPSLEECQKAQIFTQMQALKYIGNKVRRQRMWGGGPKKTKIEEARELLASTILTHVPVKEFNFRAKCIYTAVMVRRVILAQGDNKVDDRDYYGNKRLELAGQLLSLLFEDLFKKFNSEMKKIADQVIPKQRAAQFDVVKHMRQDQITNGMVNAISTGNWSLKRFKMDRQGVTQVLSRLSYISALGMMTRISSQFEKTRKVSGPRSLQPSQWGMLCPSDTPEGEACGLVKNLALMTHITTDMEDGPIVKLASNLGVEDVNLLCGEELSYPNVFLVFLNGNILGVIRDHKKLVNTFRLMRRAGYINEFVSISTNLTDRCVYISSDGGRLCRPYIIVKKQKPAVTNKHMEELAQGYRNFEDFLHESLVEYLDVNEENDCNIALYEHTINKDTTHLEIEPFTLLGVCAGLIPYPHHNQSPRNTYQCAMGKQAMGTIGYNQRNRIDTLMYLLAYPQKPMVKTKTIELIEFEKLPAGQNATVAVMSYSGYDIEDALVLNKASLDRGFGRCLVYKNAKCTLKRYTNQTFDKVMGPMLDAATRKPIWRHEILDADGICSPGEKVENKQVLVNKSMPTVTQIPLEGSNVPQQPQYKDVPITYKGATDSYIEKVMISSNAEDAFLIKMLLRQTRRPEIGDKFSSRHGQKGVCGLIVPQEDMPFCDSGICPDIIMNPHGFPSRMTVGKLIELLAGKAGVLDGRFHYGTAFGGSKVKDVCEDLVRHGYNYLGKDYVTSGITGEPLEAYIYFGPVYYQKLKHMVLDKMHARARGPRAVLTRQPTEGRSRDGGLRLGEMERDCLIGYGASMLLLERLMISSDAFEVDVCGQCGLLGYSGWCHYCKSSCHVSSLRIPYACKLLFQELQSMNIIPRLKLSKYNE |
